Assay results published in publication doi:10.1101/2024.06.17.598829 (bioRxiv, 2024).
Substitutions are numbered along the chain they refer to. These are yes or no findings as the source states them, for the method shown. In cells and extracts the contact can be indirect. Some entries that bind do so weakly or less than the wild type. For some of these results: Sequences can lack the tags named with a protein. One block for each binder: values may come before it.

Columns and labels:
[1] = target: T1, NON-PHOTOTROPIC HYPOCOTYL 3 (NPH3), fluorophore-tagged, expressed in N. benthamiana (Arabidopsis thaliana) (UniProt Q9FMF5); test: co-IP
T1 sequence: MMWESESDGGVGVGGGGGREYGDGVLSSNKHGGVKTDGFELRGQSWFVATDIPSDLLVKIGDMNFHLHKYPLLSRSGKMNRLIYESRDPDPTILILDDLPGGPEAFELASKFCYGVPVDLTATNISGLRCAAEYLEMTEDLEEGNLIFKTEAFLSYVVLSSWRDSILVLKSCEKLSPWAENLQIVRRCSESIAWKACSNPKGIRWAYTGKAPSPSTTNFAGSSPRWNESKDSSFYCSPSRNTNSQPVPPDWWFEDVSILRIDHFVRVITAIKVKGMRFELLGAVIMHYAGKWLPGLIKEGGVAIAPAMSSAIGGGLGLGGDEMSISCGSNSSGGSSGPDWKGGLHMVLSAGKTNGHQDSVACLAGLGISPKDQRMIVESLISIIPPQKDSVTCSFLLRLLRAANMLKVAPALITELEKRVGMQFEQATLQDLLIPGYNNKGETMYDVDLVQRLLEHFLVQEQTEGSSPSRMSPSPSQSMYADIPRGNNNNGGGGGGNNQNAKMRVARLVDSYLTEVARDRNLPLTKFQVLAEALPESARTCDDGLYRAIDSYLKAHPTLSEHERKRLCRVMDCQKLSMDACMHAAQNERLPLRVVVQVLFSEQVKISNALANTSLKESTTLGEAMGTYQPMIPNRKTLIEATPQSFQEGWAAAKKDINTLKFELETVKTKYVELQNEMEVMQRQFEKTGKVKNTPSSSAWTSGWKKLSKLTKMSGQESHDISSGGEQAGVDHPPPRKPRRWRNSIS

[2] = target: NPH3ΔC104 (Arabidopsis thaliana) (UniProt Q9FMF5); test: co-IP
[3] = target: T2, NPH3ΔC51 (Arabidopsis thaliana) (UniProt Q9FMF5); test: co-IP
T2 sequence: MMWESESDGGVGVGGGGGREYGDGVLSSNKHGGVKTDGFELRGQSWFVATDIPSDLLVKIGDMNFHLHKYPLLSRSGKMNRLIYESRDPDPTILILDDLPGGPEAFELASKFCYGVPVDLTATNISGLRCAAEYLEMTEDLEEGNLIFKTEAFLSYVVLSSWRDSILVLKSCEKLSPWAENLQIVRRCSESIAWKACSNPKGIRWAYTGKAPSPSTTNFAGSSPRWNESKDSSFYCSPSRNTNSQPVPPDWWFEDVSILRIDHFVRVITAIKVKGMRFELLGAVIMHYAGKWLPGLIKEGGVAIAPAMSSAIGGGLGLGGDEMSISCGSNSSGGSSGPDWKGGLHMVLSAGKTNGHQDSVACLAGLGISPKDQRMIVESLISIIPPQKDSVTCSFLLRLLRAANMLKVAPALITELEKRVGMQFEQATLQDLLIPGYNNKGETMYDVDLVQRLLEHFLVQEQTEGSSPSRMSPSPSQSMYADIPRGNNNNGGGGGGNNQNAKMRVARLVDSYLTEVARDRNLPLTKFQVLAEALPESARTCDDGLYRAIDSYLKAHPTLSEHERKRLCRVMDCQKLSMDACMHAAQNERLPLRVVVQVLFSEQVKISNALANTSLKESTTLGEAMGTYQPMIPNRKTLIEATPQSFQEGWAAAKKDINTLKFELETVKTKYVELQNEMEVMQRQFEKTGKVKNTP

[4] = target: T3, NPH3_S744A (Arabidopsis thaliana) (UniProt Q9FMF5); test: FRET or BRET
T3 sequence: T1 sequence with S744A

binding [1]: binds weakly
binding [2]: binds weakly
binding [3]: binds weakly
B1: NPH3ΔC104 (domain or fragment, UniProt Q9FMF5 1-642)
chain: MMWESESDGGVGVGGGGGREYGDGVLSSNKHGGVKTDGFELRGQSWFVATDIPSDLLVKIGDMNFHLHKYPLLSRSGKMNRLIYESRDPDPTILILDDLPGGPEAFELASKFCYGVPVDLTATNISGLRCAAEYLEMTEDLEEGNLIFKTEAFLSYVVLSSWRDSILVLKSCEKLSPWAENLQIVRRCSESIAWKACSNPKGIRWAYTGKAPSPSTTNFAGSSPRWNESKDSSFYCSPSRNTNSQPVPPDWWFEDVSILRIDHFVRVITAIKVKGMRFELLGAVIMHYAGKWLPGLIKEGGVAIAPAMSSAIGGGLGLGGDEMSISCGSNSSGGSSGPDWKGGLHMVLSAGKTNGHQDSVACLAGLGISPKDQRMIVESLISIIPPQKDSVTCSFLLRLLRAANMLKVAPALITELEKRVGMQFEQATLQDLLIPGYNNKGETMYDVDLVQRLLEHFLVQEQTEGSSPSRMSPSPSQSMYADIPRGNNNNGGGGGGNNQNAKMRVARLVDSYLTEVARDRNLPLTKFQVLAEALPESARTCDDGLYRAIDSYLKAHPTLSEHERKRLCRVMDCQKLSMDACMHAAQNERLPLRVVVQVLFSEQVKISNALANTSLKESTTLGEAMGTYQPMIPNRKTLIEAT

binding [4]: no binding
B2: NPH3ΔLIP_WLM/E (protein, UniProt Q9FMF5)
chain: MMWESESDGGVGVGGGGGREYGDGVLSSNKHGGVKTDGFELRGQSWFVATDIPSDLLVKIGDMNFHLHKYPLLSRSGKMNRLIYESRDPDPTILILDDLPGGPEAFELASKFCYGVPVDLTATNISGLRCAAEYLEMTEDLEEGNLIFKTEAFLSYVVLSSWRDSILVLKSCEKLSPWAENLQIVRRCSESIAWKACSNPKGIRWAYTGKAPSPSTTNFAGSSPRWNESKDSSFYCSPSRNTNSQPVPPDWWFEDVSILRIDHFVRVITAIKVKGMRFELLGAVIMHYAGKWLPGLIKEGGVAIAPAMSSAIGGGLGLGGDEMSISCGSNSSGGSSGPDWKGGLHMVLSAGKTNGHQDSVACLAGLGISPKDQRMIVESLISIIPPQKDSVTCSFLLRLLRAANMLKVAPALITELEKRVGMQFEQATLQDLLIPGYNNKGETMYDVDLVQRLLEHFLVQEQTEGSSPSRMSPSPSQSMYADIPRGNNNNGGGGGGNNQNAKMRVARLVDSYLTEVARDRNLPLTKFQVLAEALPESARTCDDGLYRAIDSYLKAHPTLSEHERKRLCRVMDCQKLSMDACMHAAQNERLPSEQVKISNALANTSLKESTTLGEAMGTYQPMIPNRKTLIEATPQSFQEGEAAAKKDINTLKFEEETVKTKYVELQNEMEVEQRQFEKTGKVKNTPSSSAWTSGWKKLSKLTKMSGQESHDISSGGEQAGVDHPPPRKPRRWRNSIS
